System: WW12
Assay: NMR titration (HSQC) of 15N-PY12 with unlabelled WW12
Format: binding, human

B1: PY12: LATS1 region PY12 (containing both PPxY motifs; aa 361-567) (protein)
chain: NVVPAGTVNRQPPPPYPLTAANGQSPSALQTGGSAAPSSYTNGSIPQSMMVPNRNSHNMELYNISVPGLQTNWPQSSSAPAQSSPSSGHEIPTWQPNIPVRSNSFNNPLGNRASHSANSQPSATTVTAITPAPIQQPVKSMRVLKPELQTALAPTHPSWIPQPIQTVQPSPFPEGTASNVTVMPPVAEAPNYQGPPPPYPKHLLHQN
modifications: left off: His-tag, end not stated, kept
15N-labelled PY12, final molar ratio 1:5, 20 mM Tris-HCl pH 7.0, 50 mM NaCl, 3% glycerol, 5 mM DTT, 2 mM EDTA
  HSQC change on addition of WW12: no significant change in the structure of PY12, with a shift in only a few peaks
Free 15N-labelled PY12, without WW12
  HSQC of free PY12: unstructured

Source: publication PMC5814282, “Biophysical studies and NMR structure of YAP2 WW domain - LATS1 PPxY motif complexes reveal the basis of their interaction” (Oncotarget, 2018)
